Among the data in article PMC6794377 are binding values, retold here.

The assay has as its target T1, native mouse ThrRS-L (mThrRS-L) (mouse (endogenous in muscle tissue and NIH/3T3)) (UniProt Q8BLY2).
T1 sequence: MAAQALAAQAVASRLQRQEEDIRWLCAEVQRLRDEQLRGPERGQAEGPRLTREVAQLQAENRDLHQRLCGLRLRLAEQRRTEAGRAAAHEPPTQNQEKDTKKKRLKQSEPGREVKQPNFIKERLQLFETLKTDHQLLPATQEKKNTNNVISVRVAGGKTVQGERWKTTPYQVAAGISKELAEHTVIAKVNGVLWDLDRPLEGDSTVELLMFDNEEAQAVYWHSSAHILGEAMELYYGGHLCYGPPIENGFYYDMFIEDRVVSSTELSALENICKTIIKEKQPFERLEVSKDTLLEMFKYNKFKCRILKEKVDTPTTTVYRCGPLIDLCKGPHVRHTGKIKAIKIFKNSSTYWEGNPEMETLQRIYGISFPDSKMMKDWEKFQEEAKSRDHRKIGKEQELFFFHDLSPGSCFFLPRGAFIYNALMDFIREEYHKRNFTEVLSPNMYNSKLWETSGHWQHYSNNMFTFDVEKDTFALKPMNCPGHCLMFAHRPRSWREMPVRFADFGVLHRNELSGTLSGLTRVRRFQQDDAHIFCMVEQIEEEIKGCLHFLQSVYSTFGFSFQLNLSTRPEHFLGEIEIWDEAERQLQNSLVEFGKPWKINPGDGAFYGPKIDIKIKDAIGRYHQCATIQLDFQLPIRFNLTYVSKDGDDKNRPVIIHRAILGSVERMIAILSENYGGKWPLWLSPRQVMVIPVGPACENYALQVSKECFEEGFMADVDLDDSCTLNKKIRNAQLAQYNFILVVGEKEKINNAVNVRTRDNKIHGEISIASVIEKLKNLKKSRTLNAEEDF
Kind of assay: affinity purification with mass spectrometry; extract of mouse muscle tissue, IP with anti-mThrRS-L antibodies; SDS-PAGE, silver staining, bands cut out for MS.

No constants are given. Whether binding was seen depends on the method and setting. Binding seen in cells or lysates may run through a third protein. These calls come from enrichment with a bait or labelling near it, and not all partners need be listed.

B1: native mouse ThrRS (mThrRS), endogenous in muscle tissue (enzyme, UniProt Q9D0R2 1-722)
chain: MSQEKASSPSGKMDGEKPVDASEEKRKEGGKKKSKDGGGDGGRAELNPWPEYINTRLDMYNKLKAEHDSILAEKAAKDSKPIKVTLPDGKQVDAESWKTTPYQIACGISQGLADNTVVAKVNKVVWDLDRPLETDCTLELLKFEDEEAQAVYWHSSAHIMGEAMERVYGGCLCYGPPIENGFYYDMYLEEGGVSSNDFSSLETLCKKIIKEKQTFERLEVKKETLLEMFKYNKFKCRILNEKVNTPTTTVYRCGPLIDLCRGPHVRHTGKIKTLKIHKNSSTYWEGKADMETLQRIYGISFPDPKLLKEWEKFQEEAKNRDHRKIGRDQELYFFHELSPGSCFFLPKGAYIYNTLMEFIRSEYRKRGFQEVVTPNIFNSRLWMTSGHWQHYSENMFSFEVEKEQFALKPMNCPGHCLMFDHRPRSWRELPLRLADFGVLHRNELSGALTGLTRVRRFQQDDAHIFCAMEQIEDEIKGCLDFLRTVYSVFGFSFKLNLSTRPEKFLGDIEIWNQAEKQLENSLNEFGEKWELNPGDGAFYGPKIDIQIKDAIGRYHQCATIQLDFQLPIRFNLTYVSHDGDDKKRPVIVHRAILGSVERMIAILTENYGGKWPFWLSPRQVMVVPVGPTCDEYAQKVRQQFHDAKFMADTDLDPGCTLNKKIRNAQLAQYNFILVVGEKEKASGTVNIRTRDNKVHGERTVEETVRRLQQLKQTRSKQAEEEF
In the case of B1, the binding entry is reported as “binds”.

B2: Dlat, endogenous in mouse muscle tissue (protein, UniProt Q8BMF4 86-642)
chain: SLPPHQKVPLPSLSPTMQAGTIARWEKKEGEKISEGDLIAEVETDKATVGFESLEECYMAKILVPEGTRDVPVGSIICITVEKPQDIEAFKNYTLDLAAAAAPQAAPAAAPAPAAAPAAPSASAPGSSYPTHMQIVLPALSPTMTMGTVQRWEKKVGEKLSEGDLLAEIETDKATIGFEVQEEGYLAKILVPEGTRDVPLGAPLCIIVEKQEDIAAFADYRPTEVTSLKPQAAPPAPPPVAAVPPTPQPVAPTPSAAPAGPKGRVFVSPLAKKLAAEKGIDLTQVKGTGPEGRIIKKDIDSFVPSKAAPAAAAAMAPPGPRVAPAPAGVFTDIPISNIRRVIAQRLMQSKQTIPHYYLSVDVNMGEVLLVRKELNKMLEGKGKISVNDFIIKASALACLKVPEANSSWMDTVIRQNHVVDVSVAVSTPAGLITPIVFNAHIKGLETIASDVVSLASKAREGKLQPHEFQGGTFTISNLGMFGIKNFSAIINPPQACILAIGASEDKLIPADNEKGFDVASVMSVTLSCDHRVVDGAVGAQWLAEFKKYLEKPITMLL
In the case of B2, the binding entry was “binds”.

B3: mouse ArgRS, endogenous in muscle tissue (enzyme, UniProt Q9D0I9 1-660)
chain: MDGLVAQCSARLLQQEREIKALTAEIDRLKNCGCLEASPSLEQLREENLKLKYRLNILRRSLQEERRKPTKNMININSRLQEVFGCAIRAAYPDLENPPLIVTPSQQPKFGDYQCNSAMGISQMLKAKEQKVSPREIAENITKHLPNNKYIDKVEIAGPGFINVHLRKDFVSEQLTSLLVNGVQLPVLGDKEKVIVDFSSPNIAKEMHVGHLRSTIIGESMSRLFEFAGYDVLRLNHVGDWGTQFGMLIAHLQDKFPDYLTVSPPIGDLQAFYKESKKRFDADEEFKKRAYQCVVLLQSKNPDIMKAWNLICDVSREEFKKIYDALDITLIERGESFYQDRMKDIVKEFEDKGFVQVDDGRKIVFVPGCSVPLTIVKSDGGYTYDTSDLAAIKQRLFEEKANKIIYVVDNGQAIHFQTIFAAAQMIGWYDPKVTLVTHVGFGVVLGEDKKKFKTRSGETVRLMDLLEEGLKRSMDKLKEKERDKVLTEEELKAAQTSVAYGCIKYADLSHNRLNDYIFSFDKMLDDRGNTAAYLLYAFTRIRSIARLANIDEAMLQRAARETKIILDHEKEWKLGRCILRFPEILQKILDDLFLHTLCDYIYELATTFTEFYDSCYCVEKDRQTGKVLKVNMWRMLLCEAVAAVMAKGFDILGIKPVQRM
For the molecule B3, the binding result is given as “binds”.
